Measured values: the supplement of paper PMC6411743
± gives the standard deviation of the averaged measurements. Only a part is listed here, and it is no random draw. Most entries show no effect beyond the scatter of the controls.

Protein sequences, listed by entry. Tags and fused reporters are not part of them. Lines headed by an entry give the natural chain unless they say otherwise; changes in a name come on top.
UniProt Q9Y4B6: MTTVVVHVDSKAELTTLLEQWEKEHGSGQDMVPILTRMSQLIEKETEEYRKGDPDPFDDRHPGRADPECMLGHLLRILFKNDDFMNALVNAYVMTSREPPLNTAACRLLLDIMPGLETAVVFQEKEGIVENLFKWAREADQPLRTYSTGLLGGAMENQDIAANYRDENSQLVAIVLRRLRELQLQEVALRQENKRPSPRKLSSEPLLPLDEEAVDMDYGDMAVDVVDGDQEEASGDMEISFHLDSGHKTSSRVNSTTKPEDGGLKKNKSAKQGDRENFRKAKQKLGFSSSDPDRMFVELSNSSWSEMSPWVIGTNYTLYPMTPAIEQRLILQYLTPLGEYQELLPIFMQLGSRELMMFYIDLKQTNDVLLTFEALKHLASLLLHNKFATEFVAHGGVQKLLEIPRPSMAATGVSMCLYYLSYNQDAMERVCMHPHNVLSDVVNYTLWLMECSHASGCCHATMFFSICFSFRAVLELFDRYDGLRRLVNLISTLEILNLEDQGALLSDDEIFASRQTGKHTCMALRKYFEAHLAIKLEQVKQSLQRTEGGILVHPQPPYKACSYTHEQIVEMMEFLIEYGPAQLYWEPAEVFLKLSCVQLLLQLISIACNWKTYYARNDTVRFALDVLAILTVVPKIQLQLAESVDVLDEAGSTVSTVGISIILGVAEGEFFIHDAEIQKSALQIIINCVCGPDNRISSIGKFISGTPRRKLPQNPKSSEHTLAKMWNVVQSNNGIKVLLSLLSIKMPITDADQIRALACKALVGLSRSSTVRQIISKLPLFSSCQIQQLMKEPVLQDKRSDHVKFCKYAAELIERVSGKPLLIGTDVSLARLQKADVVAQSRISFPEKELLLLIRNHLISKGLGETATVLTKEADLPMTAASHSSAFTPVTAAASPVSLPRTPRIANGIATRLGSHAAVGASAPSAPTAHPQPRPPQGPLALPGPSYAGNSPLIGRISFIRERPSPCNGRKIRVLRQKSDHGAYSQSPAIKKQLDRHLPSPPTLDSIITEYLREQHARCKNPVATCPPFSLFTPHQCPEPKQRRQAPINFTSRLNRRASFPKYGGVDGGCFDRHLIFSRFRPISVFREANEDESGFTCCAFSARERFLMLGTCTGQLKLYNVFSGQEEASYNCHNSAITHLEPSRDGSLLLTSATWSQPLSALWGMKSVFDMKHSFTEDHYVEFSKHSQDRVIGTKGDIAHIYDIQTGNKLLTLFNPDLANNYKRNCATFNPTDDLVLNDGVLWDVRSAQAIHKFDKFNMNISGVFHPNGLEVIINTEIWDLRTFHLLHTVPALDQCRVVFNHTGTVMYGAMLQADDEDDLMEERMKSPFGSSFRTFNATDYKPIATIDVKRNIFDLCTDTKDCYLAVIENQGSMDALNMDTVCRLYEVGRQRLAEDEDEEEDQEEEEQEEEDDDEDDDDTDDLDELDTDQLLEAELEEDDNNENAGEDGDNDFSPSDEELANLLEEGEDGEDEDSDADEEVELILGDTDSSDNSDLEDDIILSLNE
UniProt Q9Y678: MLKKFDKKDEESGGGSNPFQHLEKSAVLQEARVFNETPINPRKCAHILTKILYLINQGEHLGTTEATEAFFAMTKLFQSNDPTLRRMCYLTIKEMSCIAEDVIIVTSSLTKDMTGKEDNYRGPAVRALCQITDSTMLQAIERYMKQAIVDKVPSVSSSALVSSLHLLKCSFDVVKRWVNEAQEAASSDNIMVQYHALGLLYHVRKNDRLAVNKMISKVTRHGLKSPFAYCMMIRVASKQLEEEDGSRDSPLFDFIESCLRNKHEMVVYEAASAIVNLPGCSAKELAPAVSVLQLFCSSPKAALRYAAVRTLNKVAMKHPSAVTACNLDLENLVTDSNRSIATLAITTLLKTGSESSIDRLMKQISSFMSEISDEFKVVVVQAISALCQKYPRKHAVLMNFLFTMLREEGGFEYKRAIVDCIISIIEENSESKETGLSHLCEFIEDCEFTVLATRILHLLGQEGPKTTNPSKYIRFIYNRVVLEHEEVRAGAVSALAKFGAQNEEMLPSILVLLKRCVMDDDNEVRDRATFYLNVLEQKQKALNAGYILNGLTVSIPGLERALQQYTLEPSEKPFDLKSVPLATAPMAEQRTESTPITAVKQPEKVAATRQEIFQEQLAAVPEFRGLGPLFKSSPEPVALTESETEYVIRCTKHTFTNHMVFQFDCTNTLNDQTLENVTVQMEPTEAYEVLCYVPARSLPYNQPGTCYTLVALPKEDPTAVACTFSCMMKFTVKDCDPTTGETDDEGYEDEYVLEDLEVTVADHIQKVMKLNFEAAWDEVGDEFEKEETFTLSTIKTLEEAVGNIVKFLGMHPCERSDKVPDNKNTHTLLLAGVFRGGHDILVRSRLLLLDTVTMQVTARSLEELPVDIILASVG
UniProt Q9Y6D5: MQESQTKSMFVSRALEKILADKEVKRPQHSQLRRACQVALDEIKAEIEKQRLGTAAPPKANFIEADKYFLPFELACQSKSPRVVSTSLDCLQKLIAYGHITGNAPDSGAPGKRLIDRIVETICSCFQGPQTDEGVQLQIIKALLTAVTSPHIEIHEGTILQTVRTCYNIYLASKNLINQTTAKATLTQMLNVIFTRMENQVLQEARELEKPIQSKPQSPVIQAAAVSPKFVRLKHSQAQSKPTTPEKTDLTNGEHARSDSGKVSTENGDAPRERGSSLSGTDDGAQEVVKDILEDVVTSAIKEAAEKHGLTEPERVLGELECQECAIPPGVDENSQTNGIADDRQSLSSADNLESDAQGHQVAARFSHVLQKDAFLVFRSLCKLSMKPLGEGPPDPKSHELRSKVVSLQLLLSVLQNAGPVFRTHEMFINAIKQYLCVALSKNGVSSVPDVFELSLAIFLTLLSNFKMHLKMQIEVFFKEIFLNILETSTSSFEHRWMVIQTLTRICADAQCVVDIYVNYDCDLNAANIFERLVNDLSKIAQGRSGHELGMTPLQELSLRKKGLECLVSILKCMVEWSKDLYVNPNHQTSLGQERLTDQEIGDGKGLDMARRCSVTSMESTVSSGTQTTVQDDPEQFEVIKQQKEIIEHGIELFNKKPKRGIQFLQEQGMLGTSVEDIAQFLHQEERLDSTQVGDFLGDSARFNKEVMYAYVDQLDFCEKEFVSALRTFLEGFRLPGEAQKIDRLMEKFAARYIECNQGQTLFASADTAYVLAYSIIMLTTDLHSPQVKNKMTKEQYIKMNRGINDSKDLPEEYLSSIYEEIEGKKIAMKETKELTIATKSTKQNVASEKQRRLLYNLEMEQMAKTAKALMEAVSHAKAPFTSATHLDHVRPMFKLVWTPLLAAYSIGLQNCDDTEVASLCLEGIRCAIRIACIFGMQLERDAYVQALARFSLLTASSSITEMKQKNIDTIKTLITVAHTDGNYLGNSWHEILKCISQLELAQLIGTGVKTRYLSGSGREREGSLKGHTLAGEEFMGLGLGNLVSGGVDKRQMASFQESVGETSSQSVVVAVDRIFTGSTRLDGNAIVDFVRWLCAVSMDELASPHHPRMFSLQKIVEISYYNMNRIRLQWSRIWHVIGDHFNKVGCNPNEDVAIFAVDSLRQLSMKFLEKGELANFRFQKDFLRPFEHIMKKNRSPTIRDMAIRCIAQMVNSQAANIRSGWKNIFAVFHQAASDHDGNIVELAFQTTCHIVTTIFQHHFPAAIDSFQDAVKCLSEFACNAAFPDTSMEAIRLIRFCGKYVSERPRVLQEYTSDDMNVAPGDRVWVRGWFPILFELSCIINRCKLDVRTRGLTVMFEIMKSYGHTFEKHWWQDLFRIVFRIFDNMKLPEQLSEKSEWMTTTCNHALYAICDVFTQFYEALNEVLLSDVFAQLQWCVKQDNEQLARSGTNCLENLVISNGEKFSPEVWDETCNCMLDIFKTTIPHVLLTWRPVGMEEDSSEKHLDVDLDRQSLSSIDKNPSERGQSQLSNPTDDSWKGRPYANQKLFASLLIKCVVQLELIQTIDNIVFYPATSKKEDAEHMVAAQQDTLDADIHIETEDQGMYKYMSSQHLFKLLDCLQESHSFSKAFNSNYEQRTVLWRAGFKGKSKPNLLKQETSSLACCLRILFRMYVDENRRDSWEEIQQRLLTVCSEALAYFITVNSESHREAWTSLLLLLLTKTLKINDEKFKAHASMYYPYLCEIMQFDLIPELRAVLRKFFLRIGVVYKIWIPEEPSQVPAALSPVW
UniProt Q9Y6Y8: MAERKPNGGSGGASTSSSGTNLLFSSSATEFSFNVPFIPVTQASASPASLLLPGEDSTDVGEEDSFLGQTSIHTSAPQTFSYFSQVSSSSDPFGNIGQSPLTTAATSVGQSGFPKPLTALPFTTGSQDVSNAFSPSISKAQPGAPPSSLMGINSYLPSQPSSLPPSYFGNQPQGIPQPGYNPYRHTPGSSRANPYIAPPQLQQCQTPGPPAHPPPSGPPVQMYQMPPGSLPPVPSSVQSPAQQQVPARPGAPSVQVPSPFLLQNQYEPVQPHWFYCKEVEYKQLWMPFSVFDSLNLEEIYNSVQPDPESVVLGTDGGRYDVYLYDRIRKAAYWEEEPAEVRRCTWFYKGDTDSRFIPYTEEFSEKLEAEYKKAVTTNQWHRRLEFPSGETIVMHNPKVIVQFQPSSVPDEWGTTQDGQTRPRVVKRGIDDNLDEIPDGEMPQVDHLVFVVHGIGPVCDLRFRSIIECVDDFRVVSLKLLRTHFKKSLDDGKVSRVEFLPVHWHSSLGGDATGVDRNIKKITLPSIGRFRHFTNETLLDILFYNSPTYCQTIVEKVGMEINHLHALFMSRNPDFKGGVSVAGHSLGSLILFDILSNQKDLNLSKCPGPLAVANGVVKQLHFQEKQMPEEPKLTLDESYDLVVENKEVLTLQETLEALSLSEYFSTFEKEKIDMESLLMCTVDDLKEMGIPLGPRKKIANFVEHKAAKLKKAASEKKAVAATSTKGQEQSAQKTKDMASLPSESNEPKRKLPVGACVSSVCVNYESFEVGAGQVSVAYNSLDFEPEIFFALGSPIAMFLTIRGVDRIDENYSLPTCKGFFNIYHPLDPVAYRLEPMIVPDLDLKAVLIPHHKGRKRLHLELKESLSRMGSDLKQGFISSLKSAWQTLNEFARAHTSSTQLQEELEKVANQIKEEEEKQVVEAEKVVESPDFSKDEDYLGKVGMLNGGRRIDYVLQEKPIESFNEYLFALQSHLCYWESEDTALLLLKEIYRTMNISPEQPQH
UniProt Q9Y5R8, whole entry: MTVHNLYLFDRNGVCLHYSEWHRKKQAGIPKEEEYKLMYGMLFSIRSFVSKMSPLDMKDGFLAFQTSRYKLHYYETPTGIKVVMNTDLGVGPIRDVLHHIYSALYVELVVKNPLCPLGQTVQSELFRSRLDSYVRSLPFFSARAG
UniProt Q9Y5K6, whole entry: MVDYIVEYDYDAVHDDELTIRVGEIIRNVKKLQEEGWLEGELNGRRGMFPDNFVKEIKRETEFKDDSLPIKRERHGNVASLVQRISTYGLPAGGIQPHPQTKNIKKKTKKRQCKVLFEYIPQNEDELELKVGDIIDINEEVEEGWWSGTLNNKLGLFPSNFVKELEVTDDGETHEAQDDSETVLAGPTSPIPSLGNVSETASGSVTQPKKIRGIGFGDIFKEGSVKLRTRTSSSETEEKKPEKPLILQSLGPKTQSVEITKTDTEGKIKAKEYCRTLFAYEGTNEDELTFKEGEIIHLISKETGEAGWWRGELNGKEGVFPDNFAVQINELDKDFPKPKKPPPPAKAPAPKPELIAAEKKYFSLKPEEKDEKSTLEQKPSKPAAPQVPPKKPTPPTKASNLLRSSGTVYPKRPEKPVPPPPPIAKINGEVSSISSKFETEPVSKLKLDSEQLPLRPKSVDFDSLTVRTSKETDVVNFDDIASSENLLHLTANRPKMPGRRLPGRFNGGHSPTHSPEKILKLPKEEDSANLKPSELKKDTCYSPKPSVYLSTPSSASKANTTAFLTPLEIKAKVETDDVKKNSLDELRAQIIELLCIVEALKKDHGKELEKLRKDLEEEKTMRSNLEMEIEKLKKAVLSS
UniProt Q9Y6J9: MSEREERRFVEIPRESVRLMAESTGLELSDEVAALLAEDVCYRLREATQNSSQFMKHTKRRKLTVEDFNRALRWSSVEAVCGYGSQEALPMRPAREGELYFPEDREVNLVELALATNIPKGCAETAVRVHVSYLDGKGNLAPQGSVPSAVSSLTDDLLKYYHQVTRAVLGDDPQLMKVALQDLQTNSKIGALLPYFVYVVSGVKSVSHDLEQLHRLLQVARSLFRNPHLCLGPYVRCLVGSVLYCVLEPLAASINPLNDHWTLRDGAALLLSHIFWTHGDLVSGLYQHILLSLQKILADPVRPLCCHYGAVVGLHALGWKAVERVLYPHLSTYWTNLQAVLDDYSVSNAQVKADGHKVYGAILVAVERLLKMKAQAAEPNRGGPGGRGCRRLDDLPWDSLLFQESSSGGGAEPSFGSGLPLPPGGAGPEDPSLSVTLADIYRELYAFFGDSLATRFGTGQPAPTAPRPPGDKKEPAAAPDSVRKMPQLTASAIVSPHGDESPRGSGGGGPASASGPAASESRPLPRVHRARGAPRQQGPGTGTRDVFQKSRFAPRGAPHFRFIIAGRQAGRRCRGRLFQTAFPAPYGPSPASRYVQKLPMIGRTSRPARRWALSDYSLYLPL

Compound: Nc1ncnc2c1ncn2[C@@H]1O[C@H](COP(=O)(O)OP(=O)(O)NP(=O)(O)O)[C@@H](O)[C@H]1O [adenylyl imidodiphosphate]
Assay: NP40-soluble protein abundance relative to vehicle (solubility fold change) (ratio); higher = more soluble protein in presence of AMP-PNP
Procedure, shortened: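 Across three independent experiments, values are fold changes against the detergent-processed vehicle for each replicate, based on vsn-normalised intensities. The samples were Jurkat crude lysate treated with eight concentrations (0.1 to 10 mM) for 10 min at room temperature and then 3 min at 37 °C. Lysate was solubilised with 0.8% NP40 and benzonase, ultracentrifuged, and the supernatant analysed by TMT-labelled LC-MS/MS.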

UniProt Q9Y4B6 and related entries
NP40-soluble protein abundance (concentration: 0.1mM): 1.03 ± 0.027 | NP40-soluble protein abundance (concentration: 0.5mM): 0.976 ± 0.04

LRRC42 (UniProt Q9Y546)
NP40-soluble protein abundance (concentration: 0.1mM): 1.02 ± 0.042 | NP40-soluble protein abundance (concentration: 0.5mM): 1.02 ± 0.014

NME7 (UniProt Q9Y5B8)
NP40-soluble protein abundance (concentration: 0.1mM): 0.993 ± 0.054 | NP40-soluble protein abundance (concentration: 0.5mM): 0.97 ± 0.056

UniProt Q9Y3P8
NP40-soluble protein abundance (concentration: 0.1mM): 1.01 ± 0.027 | NP40-soluble protein abundance (concentration: 0.5mM): 1.034 ± 0.0055

UniProt Q9Y520 and related entries
NP40-soluble protein abundance (concentration: 0.1mM): 1.01 ± 0.013 | NP40-soluble protein abundance (concentration: 0.5mM): 1.04 ± 0.038

TELO2 (UniProt Q9Y4R8)
NP40-soluble protein abundance (concentration: 0.1mM): 1.018 ± 0.007 | NP40-soluble protein abundance (concentration: 0.5mM): 0.991 ± 0.057

TLN2 (UniProt Q9Y4G6)
NP40-soluble protein abundance (concentration: 0.1mM): 0.986 ± 0.025 | NP40-soluble protein abundance (concentration: 0.5mM): 1 ± 0.027

UniProt Q9Y692 and related entries
NP40-soluble protein abundance (concentration: 0.1mM): 0.977 ± 0.011 | NP40-soluble protein abundance (concentration: 0.5mM): 0.987 ± 0.019

TLN1 (UniProt Q9Y490)
NP40-soluble protein abundance (concentration: 0.1mM): 0.9808 ± 0.007 | NP40-soluble protein abundance (concentration: 0.5mM): 0.998 ± 0.021

UniProt Q9Y450 and related entries
NP40-soluble protein abundance (concentration: 0.1mM): 0.963 ± 0.025 | NP40-soluble protein abundance (concentration: 0.5mM): 0.988 ± 0.021

UniProt Q9Y4W2 and related entries
NP40-soluble protein abundance (concentration: 0.1mM): 0.987 ± 0.015 | NP40-soluble protein abundance (concentration: 0.5mM): 1 ± 0.033

HSPB11 (UniProt Q9Y547)
NP40-soluble protein abundance (concentration: 0.1mM): 1.02 ± 0.036 | NP40-soluble protein abundance (concentration: 0.5mM): 1.03 ± 0.028

CCDC9 (UniProt Q9Y3X0)
NP40-soluble protein abundance (concentration: 0.1mM): 1 ± 0.025 | NP40-soluble protein abundance (concentration: 0.5mM): 1.02 ± 0.034

SRPRB (UniProt Q9Y5M8)
NP40-soluble protein abundance (concentration: 0.1mM): 1 ± 0.026 | NP40-soluble protein abundance (concentration: 0.5mM): 1.03 ± 0.017

UniProt Q9Y4Z0 and related entries
NP40-soluble protein abundance (concentration: 0.1mM): 0.994 ± 0.064 | NP40-soluble protein abundance (concentration: 0.5mM): 1.05 ± 0.15

SH3BP1 (UniProt Q9Y3L3)
NP40-soluble protein abundance (concentration: 0.1mM): 0.991 ± 0.03 | NP40-soluble protein abundance (concentration: 0.5mM): 0.994 ± 0.04

UniProt Q9Y678
NP40-soluble protein abundance (concentration: 0.1mM): 1.02 ± 0.011 | NP40-soluble protein abundance (concentration: 0.5mM): 0.999 ± 0.06

SUPT16H (UniProt Q9Y5B9)
NP40-soluble protein abundance (concentration: 0.1mM): 1.03 ± 0.024 | NP40-soluble protein abundance (concentration: 0.5mM): 1.05 ± 0.05

IVNS1ABP (UniProt Q9Y6Y0)
NP40-soluble protein abundance (concentration: 0.1mM): 0.981 ± 0.039 | NP40-soluble protein abundance (concentration: 0.5mM): 0.987 ± 0.049

RBM19 (UniProt Q9Y4C8)
NP40-soluble protein abundance (concentration: 0.1mM): 1 ± 0.015 | NP40-soluble protein abundance (concentration: 0.5mM): 1 ± 0.035

ARFGEF2 (UniProt Q9Y6D5)
NP40-soluble protein abundance (concentration: 0.1mM): 0.986 ± 0.04 | NP40-soluble protein abundance (concentration: 0.5mM): 0.958 ± 0.037

UniProt Q9Y6M7-13|Q9Y6M7-6
NP40-soluble protein abundance (concentration: 0.1mM): 0.963 ± 0.026 | NP40-soluble protein abundance (concentration: 0.5mM): 0.9827 ± 0.007

S4R3R2 (UniProt Q9NXR5)
NP40-soluble protein abundance (concentration: 0.1mM): 1.01 ± 0.029 | NP40-soluble protein abundance (concentration: 0.5mM): 0.992 ± 0.055

ALG5 (UniProt Q9Y673)
NP40-soluble protein abundance (concentration: 0.1mM): 0.991 ± 0.04 | NP40-soluble protein abundance (concentration: 0.5mM): 0.975 ± 0.049

AFG3L2 (UniProt Q9Y4W6)
NP40-soluble protein abundance (concentration: 0.1mM): 1.02 ± 0.013 | NP40-soluble protein abundance (concentration: 0.5mM): 1.03 ± 0.026

UniProt Q9Y6V0-2|Q9Y6V0-5|Q9Y6V0-6
NP40-soluble protein abundance (concentration: 0.1mM): 0.992 ± 0.12 | NP40-soluble protein abundance (concentration: 0.5mM): 1.05 ± 0.14

X5CMH5 and related entries (UniProt Q03519)
NP40-soluble protein abundance (concentration: 0.1mM): 1 ± 0.021 | NP40-soluble protein abundance (concentration: 0.5mM): 0.974 ± 0.02

UniProt Q9Y5Y5 and related entries
NP40-soluble protein abundance (concentration: 0.1mM): 0.965 ± 0.016 | NP40-soluble protein abundance (concentration: 0.5mM): 0.983 ± 0.019

UniProt Q9Y4P8 and related entries
NP40-soluble protein abundance (concentration: 0.1mM): 1.03 ± 0.04 | NP40-soluble protein abundance (concentration: 0.5mM): 1.02 ± 0.066

UniProt Q9Y5V3 and related entries
NP40-soluble protein abundance (concentration: 0.1mM): 1.01 ± 0.069 | NP40-soluble protein abundance (concentration: 0.5mM): 1.01 ± 0.074

UniProt Q9Y5S9 and related entries
NP40-soluble protein abundance (concentration: 0.1mM): 0.952 ± 0.016 | NP40-soluble protein abundance (concentration: 0.5mM): 0.988 ± 0.068

YTHDF2 (UniProt Q9Y5A9)
NP40-soluble protein abundance (concentration: 0.1mM): 1.02 ± 0.026 | NP40-soluble protein abundance (concentration: 0.5mM): 1.04 ± 0.055

UniProt Q9Y6A4
NP40-soluble protein abundance (concentration: 0.1mM): 1.04 ± 0.031 | NP40-soluble protein abundance (concentration: 0.5mM): 1 ± 0.1

UniProt Q9Y5P4 and related entries
NP40-soluble protein abundance (concentration: 0.1mM): 0.974 ± 0.0089 | NP40-soluble protein abundance (concentration: 0.5mM): 0.973 ± 0.026

SEC23IP (UniProt Q9Y6Y8)
NP40-soluble protein abundance (concentration: 0.1mM): 0.977 ± 0.041 | NP40-soluble protein abundance (concentration: 0.5mM): 1.01 ± 0.03

BOLA1 (UniProt Q9Y3E2)
NP40-soluble protein abundance (concentration: 0.1mM): 0.9936 ± 0.0088 | NP40-soluble protein abundance (concentration: 0.5mM): 0.995 ± 0.027

TRAF6 (UniProt Q9Y4K3)
NP40-soluble protein abundance (concentration: 0.1mM): 1.01 ± 0.013 | NP40-soluble protein abundance (concentration: 0.5mM): 0.976 ± 0.016

UniProt Q9Y5W8 and related entries
NP40-soluble protein abundance (concentration: 0.1mM): 1.01 ± 0.011 | NP40-soluble protein abundance (concentration: 0.5mM): 1 ± 0.042

UTP18 (UniProt Q9Y5J1)
NP40-soluble protein abundance (concentration: 0.1mM): 1.005 ± 0.0052 | NP40-soluble protein abundance (concentration: 0.5mM): 1.03 ± 0.034

RNF114 (UniProt Q9Y508)
NP40-soluble protein abundance (concentration: 0.1mM): 1.02 ± 0.017 | NP40-soluble protein abundance (concentration: 0.5mM): 0.996 ± 0.015

UniProt Q9Y6Q9 and related entries
NP40-soluble protein abundance (concentration: 0.1mM): 0.962 ± 0.024 | NP40-soluble protein abundance (concentration: 0.5mM): 0.991 ± 0.039

ARFGEF1 (UniProt Q9Y6D6)
NP40-soluble protein abundance (concentration: 0.1mM): 1 ± 0.041 | NP40-soluble protein abundance (concentration: 0.5mM): 0.979 ± 0.046

HCFC2 (UniProt Q9Y5Z7)
NP40-soluble protein abundance (concentration: 0.1mM): 0.967 ± 0.05 | NP40-soluble protein abundance (concentration: 0.5mM): 0.976 ± 0.038

UniProt Q9Y5T5 and related entries
NP40-soluble protein abundance (concentration: 0.1mM): 0.997 ± 0.021 | NP40-soluble protein abundance (concentration: 0.5mM): 0.983 ± 0.023

UniProt Q9Y448 and related entries
NP40-soluble protein abundance (concentration: 0.1mM): 0.972 ± 0.027 | NP40-soluble protein abundance (concentration: 0.5mM): 1 ± 0.015

UniProt Q9Y5K5 and related entries
NP40-soluble protein abundance (concentration: 0.1mM): 1.03 ± 0.022 | NP40-soluble protein abundance (concentration: 0.5mM): 0.967 ± 0.044

UniProt Q9Y3I0
NP40-soluble protein abundance (concentration: 0.1mM): 0.978 ± 0.019 | NP40-soluble protein abundance (concentration: 0.5mM): 1.01 ± 0.037

TRAPPC1 (UniProt Q9Y5R8)
NP40-soluble protein abundance (concentration: 0.1mM): 1.05 ± 0.028 | NP40-soluble protein abundance (concentration: 0.5mM): 1.01 ± 0.065

UniProt Q9Y608 and related entries
NP40-soluble protein abundance (concentration: 0.1mM): 1.06 ± 0.05 | NP40-soluble protein abundance (concentration: 0.5mM): 1.09 ± 0.12

HEBP2 (UniProt Q9Y5Z4)
NP40-soluble protein abundance (concentration: 0.1mM): 0.9799 ± 0.0015 | NP40-soluble protein abundance (concentration: 0.5mM): 0.97 ± 0.023

UniProt Q9Y6N5
NP40-soluble protein abundance (concentration: 0.1mM): 0.997 ± 0.046 | NP40-soluble protein abundance (concentration: 0.5mM): 0.961 ± 0.068

UniProt Q9Y6R1 and related entries
NP40-soluble protein abundance (concentration: 0.1mM): 0.983 ± 0.039 | NP40-soluble protein abundance (concentration: 0.5mM): 1.006 ± 0.0077

KPTN (UniProt Q9Y664)
NP40-soluble protein abundance (concentration: 0.1mM): 0.994 ± 0.027 | NP40-soluble protein abundance (concentration: 0.5mM): 0.987 ± 0.057

UniProt Q9Y3L5
NP40-soluble protein abundance (concentration: 0.1mM): 1.01 ± 0.018 | NP40-soluble protein abundance (concentration: 0.5mM): 1.04 ± 0.058

TRPV2 (UniProt Q9Y5S1)
NP40-soluble protein abundance (concentration: 0.1mM): 1.02 ± 0.012 | NP40-soluble protein abundance (concentration: 0.5mM): 0.982 ± 0.035

CD2AP (UniProt Q9Y5K6)
NP40-soluble protein abundance (concentration: 0.1mM): 0.986 ± 0.016 | NP40-soluble protein abundance (concentration: 0.5mM): 1 ± 0.059

TAF6L (UniProt Q9Y6J9)
NP40-soluble protein abundance (concentration: 0.1mM): 0.991 ± 0.049 | NP40-soluble protein abundance (concentration: 0.5mM): 0.971 ± 0.032

TACC3 (UniProt Q9Y6A5)
NP40-soluble protein abundance (concentration: 0.1mM): 0.967 ± 0.02 | NP40-soluble protein abundance (concentration: 0.5mM): 0.98 ± 0.053

UniProt Q9Y5B6 and related entries
NP40-soluble protein abundance (concentration: 0.1mM): 1 ± 0.017 | NP40-soluble protein abundance (concentration: 0.5mM): 1.04 ± 0.042

UniProt Q9Y4B4 and related entries
NP40-soluble protein abundance (concentration: 0.1mM): 0.99 ± 0.018 | NP40-soluble protein abundance (concentration: 0.5mM): 1 ± 0.033

RAPGEF2 (UniProt Q9Y4G8)
NP40-soluble protein abundance (concentration: 0.1mM): 0.998 ± 0.017 | NP40-soluble protein abundance (concentration: 0.5mM): 0.9967 ± 0.0066

UniProt Q9Y6J0 and related entries
NP40-soluble protein abundance (concentration: 0.1mM): 0.973 ± 0.0042 | NP40-soluble protein abundance (concentration: 0.5mM): 0.971 ± 0.035
